Experimental data taken from paper PMC12040169 (PLOS Biology, 2025).
The list shows a part of the results.

What follows are compounds tested on T1, CTL2-GFP (C. trachomatis L2/434/Bu, GFP-expressing). Conditions: bulk GFP, single well; 28.5 h, 10 µM; inhibitor.
T1 construct: L2/434/Bu, GFP-expressing
Parameters: species or system HeLa; Intracellular C. trachomatis growth in HeLa cells, bulk GFP fluorescence relative to DMSO

SMILES	% of control remaining [%]
NCCOc1ncccc1OCc1ccccc1 [CBK036305]	122.074
CNC(=O)c1ccc(-c2ccc(C(C)=O)s2)nc1NCC1CC1 [CBK106307]	100
CCOC(=O)c1c(NC(=O)c2cc3ccccc3o2)sc2c1CCCC2 [CBK262552]	100
O=C(CSCc1ccc(Cl)cc1Cl)Nc1nccs1 [CBK131921]	114.113
O=C(O)CC(NCc1ccccc1)C(=O)Nc1ccc(Cl)cc1 (stereo not shown) [CBK267141]	150.871
Cn1cccc1CN1CCCC(n2c(=O)oc3ccccc32)C1 (stereo not shown) [CBK285111]	123.194
O=C(/C=C/c1ccsc1)Nc1ccc(F)cc1 [CBK057139]	82.8661
O=C(CC(CN1CCN(c2ccccn2)CC1)C(=O)O)NCc1ccccc1 (stereo not shown) [CBK286649]	102.855
O=C1c2ccccc2CN1c1ccc(OC(F)(F)F)cc1 [CBK113237]	56.8351
O=C(CSc1ncn(-c2ccccc2)n1)Nc1ccc(F)c(Cl)c1 [CBK267313]	114.968
COc1ccc(/C(C#N)=C/c2ccc(-c3ccc(C(=O)O)cc3)o2)cc1OC [CBK268953]	105.539
CC(C)N/C(=N/S(=O)(=O)c1ccccc1)c1ccccc1 [CBK262346]	100
Cc1n[nH]c(C)c1CCC(=O)N/N=C/c1ccc(O)cc1 [CBK262927]	100
COc1ccccc1CCC(=O)N1CCCc2c(cnn2C)C1 [CBK284847]	128.079
Cc1ccc(N2CC(C(=O)Nc3ccc(S(=O)(=O)NCC4CCCO4)cc3)CC2=O)cc1 (stereo not shown) [CBK267532]	126.505
COC(=O)c1cccc2c1CCCN2Cc1nnc(C2CCC2)o1 [CBK304072]	102.673
O=C(NC(c1ccccc1)c1cccnc1)C1CCN(C(=O)NCCc2cccs2)CC1 (stereo not shown) [CBK060313]	138.386
CCOC(=O)c1ccc(N2CCN(C(C)=O)CC2)c(NC(=O)c2cccc(F)c2)c1 [CBK270263]	118.71
O=C(Nc1ccc(Cl)cc1Cl)NC(Cc1ccc(O)cc1)C(=O)O (stereo not shown) [CBK267386]	149.44
COc1cc(CNC(=O)N(CCC#N)C2CCCCC2)cc(OC)c1OC [CBK156359]	103.24
CC(C)(CN)c1ccccc1 [CBK012106C]	142.327
Cc1cc2ncc3c(n2n1)CC1CCC3N1C(=O)c1ccco1 (stereo not shown) [CBK284379]	133.391
Cc1ccc(N(CC(O)CN2C(=O)NC(C)(C)C2=O)S(=O)(=O)c2ccccc2)cc1 (stereo not shown) [CBK263580]	84.0952
CNC(=O)CN1CC[C@H]2NC(=O)c3ccccc3OCC/C=C/C[C@H]2C1 [CBK292049]	129.533
COc1ccccc1/C=N/NC(=O)COc1c(Br)cc(Br)cc1Br [CBK261966]	109.58
COc1cccc(/C=N/NC(=O)CCN2CCN(C)CC2)c1O [CBK261499]	115.776
Cc1ccc(-c2ccnc3[nH]c(=O)[nH]c(=O)c23)cc1 [CBK287978]	131.939

SMILES	% of control remaining [%]
Cc1cccc(C2(c3cccc(C)c3)CC2C(=O)NCc2cccnc2)c1 (stereo not shown) [CBK262382]	106.017
CC(=O)Cc1ccccc1OCC(=O)O [CBK261031]	117.978
Cc1cc(C)c(C)c(C(=O)COC(=O)c2cc(O)nc3ccccc23)c1C [CBK264066]	119.534
CN1C(=O)c2ccccc2OCCCCC[C@H]2[C@@H]1CCCN2C(=O)CN1CCN(CCO)CC1 [CBK292144]	142.95
Cc1cc(O)nc(SCCOCCSc2ccc(Cl)cc2)n1 [CBK267372]	155.55
COc1cc2[nH]c(=S)n(CCc3c[nH]cn3)c(=O)c2cc1OC [CBK268333]	125.008
Cc1onc(-c2ccccc2Cl)c1C(=O)Nc1ccc(S(=O)(=O)NCC2CCCO2)cc1 (stereo not shown) [CBK267536]	131.896
COc1cccc(CNC(C)(C)CO)c1OCc1ccc(Cl)cc1 [CBK266552C]	170.366
Cc1cc(N2CCOCC2)ccc1NC(=O)CCOc1cccc(Cl)c1 [CBK305724]	135.65
O=C(c1cc(-c2cccs2)[nH]n1)N1CCCCCC1 [CBK288108]	146.114
Cc1nnc2sc(-c3ccc(NC(=S)NC(=O)c4ccc(-c5ccccc5[N+](=O)[O-])o4)cc3)nn12 [CBK266803]	175.234
CC(Nc1cc(N2CCN(S(=O)(=O)N(C)C)CC2)ccc1[N+](=O)[O-])C12CC3CC(CC(C3)C1)C2 (stereo not shown) [CBK265479]	85.8577
CCOc1ccc(CNc2ccc(S(N)(=O)=O)cc2)cc1 [CBK267962]	107.579
Cc1ccc(S(=O)(=O)N2CCCCC2CO)cc1 (stereo not shown) [CBK051142]	74.894
CN(C)C(=O)c1sc2ccccc2c1Cl [CBK067817]	112.278
CC(C)(C)c1ccc(C(=O)Nc2nsc(-c3ccc(Cl)cc3)n2)cc1 [CBK113176]	98.2344
N#CCCn1cc(C(=O)N2CCOCC2)c(-c2cccc(Cl)c2)n1 [CBK306208]	126.406
Cc1nc2c(C(=O)NCCCN3CCCC3=O)cnn2c(C)c1Cc1cccc(F)c1 [CBK162104]	122.407
CCn1nccc1C(=O)NC1=C(C#N)CCC1 [CBK265836]	144.454
O=c1[nH]c2ncc(-c3cccc4cccnc34)nc2n1Cc1cccnc1 [CBK064305]	166.587
COC1CCCC(C(=O)NC(Cc2ccsc2)c2cccnc2)C1 (stereo not shown) [CBK284654]	159.64
COc1cc(C(=O)Nc2nc3c(s2)CC(C)CC3)cc(OC)c1OC (stereo not shown) [CBK287299]	58.9119
CCCNC(=O)N1CCCC(Cc2ccc(F)cc2F)(C(=O)OCC)C1 (stereo not shown) [CBK307031]	115.33
O=C1NC2(CCCCCC2)C(=O)N1Cc1coc(-c2cccs2)n1 [CBK305858]	100.172
Cc1nn(Cc2cccc3ccccc23)c(C)c1NC(=O)c1ccncc1 [CBK269990]	113.57
COc1ccc(N2CCN(c3cc(C)nc4cc(-c5nccn5C)nn34)CC2)cc1 [CBK286187]	146.257
O=C(CN1CCOCC1)NC(=O)Nc1ccccc1 [CBK269213]	113.371

SMILES	% of control remaining [%]
COc1ccccc1CN1CC[C@H]2NC(=O)CNC(=O)C3(C/C=C/C[C@H]2C1)CCN(C(C)=O)CC3 [CBK292107]	117.398
COc1ccc(OCC(=O)Nc2ccc(C(=O)O)c(Cl)c2)cc1 [CBK287108]	89.4175
CC1CCN(S(=O)(=O)c2cccs2)CC1 [CBK102093]	120.663
CC(Oc1ccc(F)cc1)C(=O)N1CCCc2c(cnn2C)C1 (stereo not shown) [CBK285230]	126.69
COc1ccc(CN2CCCN(c3ccnc(OCCN4CCOCC4)n3)CC2)cc1 [CBK083800]	129.074
COc1cccc(C(=O)Nc2nc3ccc(F)cc3s2)c1 [CBK287342]	123.852
COc1ccc([C@@]23CCC(NC(=O)Nc4cc(C(F)(F)F)ccc4F)C[C@@H]2N(C)CC3)cc1OC (stereo partly shown) [CBK047552T]	106.992
CC(C)n1cnnc1CN(C)C(=O)CCc1nc2ccccc2s1 [CBK304638]	117.315
COc1ccc(CN2CCN(c3ccccn3)CC2)cc1O [CBK261570]	116.77
N#C/C(=C\Nc1ccc(S(N)(=O)=O)cc1)c1nc(-c2cc3c(ccc4ccccc43)oc2=O)cs1 [CBK262376]	107.891
NC(=O)c1cccc(-c2cnc(N)c(NCc3ccco3)n2)c1 [CBK063660]	125.941
COc1cc(CNC(=O)c2ccc3[nH]ccc3c2)cc(OC)c1OC [CBK149073]	108.753
O=C(NC1CCCC1)c1cccnc1 [CBK200236]	86.6233
CC(C)OC(=O)Cc1nc(CN2CCc3sccc3C2C)cs1 (stereo not shown) [CBK305284]	136.748
CC(C)(C)c1ccc(C(=O)N2CC[C@H]3NC(=O)N(Cc4ccccc4)C(=O)[C@H]32)cc1 [CBK289294]	117.142
OCCN1CCN(C(=S)NC2CCCC2)CC1 [CBK265886]	134.054
O=C(O)c1ccc2c(c1)C(=O)N(c1ccc3c(c1)Cc1cc(N4C(=O)c5ccc(C(=O)O)cc5C4=O)ccc1-3)C2=O [CBK261333]	115.53
COc1ccc2[nH]c3c(c2c1)CCN(C(C)=O)C31CCNCC1 [CBK284429]	107.801
CC(C)C(NS(=O)(=O)c1ccc(I)cc1)C(=O)O (stereo not shown) [CBK268703]	106.978
CS(=O)(=O)N1CC2(CCN(Cc3cc(=O)[nH]c(=O)[nH]3)CC2)c2ccccc21 [CBK126679]	117.902
N#C/C(=C\c1cn(CCC(N)=O)c2ccccc12)c1nc2ccccc2[nH]1 [CBK267966]	133.447
COc1ccc([C@@]23CC[C@@H](NC(=O)Nc4cccc(-c5cnco5)c4)C[C@@H]2N(C)CC3)cc1OC [CBK059338T]	98.682
COc1ccc(Nc2cc(-c3ccco3)ncn2)c(OC)c1 [CBK090761]	72.8381
CC(=O)N1CC[C@H]2NC(=O)CNC(=O)C3(CCCC[C@H]2C1)CCN(C(=O)/C=C/c1ccccc1)CC3 [CBK292092]	123.671
O=S(=O)(NCc1ccc(C(F)(F)F)cc1)c1cccs1 [CBK043744]	116.785

A run of entries of the results above, for reference:
SMILES	% of control remaining [%]
OCCN1CCN(C(=S)NC2CCCC2)CC1 [CBK265886]	134.054
O=C(O)c1ccc2c(c1)C(=O)N(c1ccc3c(c1)Cc1cc(N4C(=O)c5ccc(C(=O)O)cc5C4=O)ccc1-3)C2=O [CBK261333]	115.53
COc1ccc2[nH]c3c(c2c1)CCN(C(C)=O)C31CCNCC1 [CBK284429]	107.801
